The results in this text go back to publication PMC3698143, “GRG5/AES Interacts with T-Cell Factor 4 (TCF4) and Downregulates Wnt Signaling in Human Cells and Zebrafish Embryos” (PLoS ONE, 2013).

Amino acid sequences for entries named in this document (tags omitted). A change or cut given only in a name is not applied to a line headed by its entry. Residues count along the entry.
UniProt Q9NQB0: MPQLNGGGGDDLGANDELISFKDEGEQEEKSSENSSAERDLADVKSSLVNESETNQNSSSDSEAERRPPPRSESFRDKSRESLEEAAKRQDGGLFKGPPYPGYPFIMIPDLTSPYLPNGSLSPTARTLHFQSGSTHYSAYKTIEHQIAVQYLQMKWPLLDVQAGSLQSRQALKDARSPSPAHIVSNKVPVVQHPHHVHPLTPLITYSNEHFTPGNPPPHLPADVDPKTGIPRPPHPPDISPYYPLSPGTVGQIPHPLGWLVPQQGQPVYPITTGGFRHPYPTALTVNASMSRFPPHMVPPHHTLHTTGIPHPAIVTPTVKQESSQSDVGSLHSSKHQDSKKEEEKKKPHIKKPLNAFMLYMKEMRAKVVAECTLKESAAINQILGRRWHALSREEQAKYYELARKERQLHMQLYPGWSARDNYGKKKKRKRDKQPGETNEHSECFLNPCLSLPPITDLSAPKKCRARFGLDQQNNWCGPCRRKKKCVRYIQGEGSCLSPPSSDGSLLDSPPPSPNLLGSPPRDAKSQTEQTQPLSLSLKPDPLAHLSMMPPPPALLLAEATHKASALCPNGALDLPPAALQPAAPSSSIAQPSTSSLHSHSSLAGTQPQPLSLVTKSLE
UniProt Q04727, residues 1-221: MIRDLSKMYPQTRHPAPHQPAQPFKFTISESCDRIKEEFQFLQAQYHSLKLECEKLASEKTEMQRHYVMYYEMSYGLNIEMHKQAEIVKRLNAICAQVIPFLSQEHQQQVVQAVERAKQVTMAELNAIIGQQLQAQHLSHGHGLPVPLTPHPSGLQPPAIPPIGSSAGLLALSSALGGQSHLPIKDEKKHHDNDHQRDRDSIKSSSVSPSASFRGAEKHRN

These are yes or no findings as the source states them, for the method shown. For some assays here: Binding calls can cover weak binding; strength is not graded here. For some assays here: In cells and extracts the contact can be indirect. For some assays here: Where a sequence is shown, tags or fusion partners need not be part of it.

Assay [1] concerns the target Gal4 DNA-binding domain fusion of TCF4_(130-220) (human) (UniProt Q9NQB0). The assay can be described thus: two-hybrid; yeast AH109 co-transformed with Gal4-BD bait and Gal4-AD prey plasmids; ADE2 reporter, growth on SC-Leu-Trp-Ade medium.
Assay [2] addresses Gal4 DNA-binding domain fusion of TCF4_(130-240) (human) (UniProt Q9NQB0). Described as above.
Assay [3] has as its target Gal4 DNA-binding domain fusion of TCF4_(130-240) with the LVPQ motif deleted (human) (UniProt Q9NQB0). The description is as above.
The target of assay [4] is Myc-tagged full-length TCF4 (human, UniProt Q9NQB0-8 1-596). The assay can be described thus: co-IP; whole-cell extracts of co-transfected HEK293 cells; IP with anti-Myc antibody and Protein G-Sepharose, 4 °C; washes with lysis buffer (140 mM NaCl, 1% Triton X-100, 1% Nonidet P-40, pH 7.4); Western blot with anti-HA. Background: In western blotting, separated proteins are transferred to a membrane and probed.

In assay [5] the target is Myc-tagged TCF4_(7-387) (human) (UniProt Q9NQB0). The assay is described as above.

For “Gal4 activation domain fusion of GRG4-QGP (GRG4_(1-221), prey ACT-GRG4-QGP) (from UniProt Q04727 1-221) (domain or fragment)”, the values for the binding result in assay [1], in assay [2] and in assay [3] were “no binding”, “binds” and “binds”, respectively.

B1: HA-epitope-tagged GRG5/AES (natural protein, human, UniProt Q08117 1-197, looked up)
chain: MMFPQSRHSGSSHLPQQLKFTTSDSCDRIKDEFQLLQAQYHSLKLECDKLASEKSEMQRHYVMYYEMSYGLNIEMHKQAEIVKRLNGICAQVLPYLSQEHQQQVLGAIERAKQVTAPELNSIIRQQLQAHQLSQLQALALPLTPLPVGLQPPSLPAVSAGTGLLSLSALGSQAHLSKEDKNGHDGDTHQEDDGEKSD
In the case of B1, the binding entry in assay [4] and in assay [5] was “binds” each time.
